Measurements published in PubChem BioAssay AID1508600 (Functional Genomics Laboratory (NCATS/FGL), 2020).
Hit rate of the full screen: of about 53,000 sequences, about 3,700 (7%) were called active.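 How the source made its calls: active means gene knockdowns whose robust z-score for IL-1 alpha signal is at least 2 or at most -2, so actives lie on both sides; inactive means the rest.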 Some of the results follow.

Assay: Components of the Cytosolic LPS Sensing Pathway: Gene Identification via Genome-wide siRNA Screen;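 further: robust z of the log signal after scaling to non-targeting control siRNA wells of the plate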
Conditions: RAW264.7 macrophages, IL-1a HTRF, actives lie on both sides, screened at 100 nM (by protocol), cells primed 5 h with Pam3CSK4 first
Procedure, shortened: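 Knockdown: 100 nM siRNA, 48h, RAW264.7. Stimulation: Pam3CSK4 5 h, then LipidA via TransIT-TKO 24 h. Output: supernatant IL-1a HTRF, negative-control-normalized, log robust z-score; viability by CellTiter-Glo.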

Sequence	z-score
GCCACAGGUAUGAGAAUGATT against Abra	inactive: 0.914
GCGGAUGAAUACUUACUUATT against Fbxl12os	inactive: 0.13
GGUUUAUGACAAACUGAAATT against Enpp4	inactive: -0.0826
GCCCUUCAAAAGGAGCAGUTT against Cap1	inactive: 1.86
GGUAAAGAAAGCCUUUUUUTT against Prkag1	inactive: 0.701
GGAAACAAUAACAACUUCCTT against Eppin	inactive: 1.03
GGAAAAACUAUGUUGCUGATT against Slc26a10	inactive: -0.637
GGAGAUGGUUAACCUCAGATT against Lurap1l	inactive: 0.674
GGGCUUUGUGCCCAACAUGTT against Rtcb	inactive: 0.278
GGACAGAUGACUUCAAUACTT against Gm4736	inactive: 0.422
GGACAAUUCCAUGCUUCCCTT against Il24	inactive: -0.00641
GGAUCUUAGAGAUGAUUACTT against Slc35g1	inactive: 1.18
GGAUAGUCAUCAACAGAGCTT against Psma7	active: -2.42
CCAGUAUGAGAACUACGAUTT against Loxl1	inactive: -0.345
GGAUCACGUUUCAAACAUCTT against Mtmr12	inactive: 0.296
GGCUGAUCGACUUAGAGCUTT against Pkp3	inactive: 0.624
GGGAGUGCCUGGGUUUGUATT against Dusp28	active: 3.19
GGCAAGUUAAUGGAUCAAATT against Tspan2	inactive: -0.891
CCUCGGCGAGAUAUUGUGUTT against Gal3st1	inactive: -0.522
GCUACGAAUACAUGCGACATT against Plekhj1	inactive: -0.906
CCCAUUUAUUCUCCUUUAUTT against Smurf1	inactive: -0.0979
GGUGGGAUUGUUCUUAAAUTT against Drap1	inactive: -0.0667

Sequence	z-score
GGAACAAAGAAAUGCAAUATT against Ncr1	inactive: -1.18
CGUACAACAACUAACUUUATT against Ube2v2	inactive: 0.583
GGAGAGUGAUGAACAGAUGTT against Pctp	active: 2.21
AUCCCAAAGUUCGUUGUUATT against Olfr307	inactive: -0.48
GGGAAAGGGCAUUUUCUUUTT against Znrf1	inactive: -0.627
GGGCACACGUACCAACUAUTT against Mib2	inactive: -0.458
GCCUUACAUGAGCCCAUGUTT against Olfr550	inactive: -1.96
GGAUCCGUUUUGGUGGAAUTT against Enpp4	inactive: 0.255
GGGCGAUAUUAUGAGCAACTT against Atp1b2	active: 3.78
CCUGGUGAAGCUAAUCACCTT against Adamts13	inactive: -1
GCCUGACUUUAUGGUAAAATT against Mnat1	inactive: -0.127
GGCAACAUUAGAAGACAGUTT against Tfb1m	inactive: -0.591
CGGAGUAACUCAACUAACATT against Tcte2	inactive: -1.02
GGUGAACUUGGCAGAGCUGTT against Prdx5	inactive: -0.98
GGGUUCAACACAUUCUCUGTT against Vmn1r232	inactive: 0.808
GGAUAAAUGUCGUUAUAACTT against Zdhhc17	inactive: 0.129
GGCACUGAAAAUAUAUUUGTT against Cs	inactive: -0.346
GCUUCUGGUGGUCAUAGCUTT against Kdm8	inactive: 0.719
GCGACCUUGAAUGGAUUCGTT against Rps29	inactive: -0.712
GGAAUGAAGUCUGUCUUCGTT against Zdhhc7	inactive: 0.648
GGAUAUUUGUCUUCUGGGUTT against Krtap19-9b	inactive: 0.195
GGUAAUAAUCUCCUAGAGUTT against Bach1	inactive: 0.285

Sequence	z-score
CCACCAACUACAGAACAUATT against BC016548	inactive: -1.27
CGGGAGUAUCUGCUUCAGUTT against Ndufb4	inactive: 0.336
GCAGUGAUCCGGAACAAAUTT against Tmc3	inactive: -0.455
CCAACCUGCGCGACUGCCGTT against Sts	inactive: -0.0204
CCAGCUCUAGUUUUUAAUCTT against Coq3	inactive: 0.0426
GCAUCAGAUGGCUAUUUGUTT against Wipi2	inactive: 1.27
GGUCAGCAGCCCAAACAUUTT against Ubl3	inactive: 0.513
CCUUGAUGUAGCAGGUUUGTT against Aoc2	inactive: 1.42
CCCAUCUGAUUGUGCACAUTT against Ctu2	inactive: 1.47
GGUAAUUGCCAUAGAAAAUTT against Erv3	inactive: -1.27
GGAUUUGAGCCUUGUUCCATT against Klk9	inactive: 1.42
UAGUGAGCAAGGAAUUGGATT against Gm20815	inactive: -0.238
GGACCUCAAAGACAACCGGTT against Mri1	inactive: -0.434
GGCCUUUUACAAUGGAACCTT against Slc2a9	inactive: -0.224
GCAAAAGCUUUACUUAGUATT against Prl3c1	inactive: 0.555
GGAACACAAUGGGACGAGUTT against Ccl11	inactive: -1.12
GGCCGGAUGGCUCCAUUAUTT against Mmp28	inactive: -0.0597
GGUCGAAGUGGACAUCUUUTT against Grik4	inactive: -0.831
GCCUACAGAGAUCUAUAAUTT against Gmds	inactive: 0.457
GGAUAACUUUAUGAAUGAGTT against Loxl3	inactive: -0.463
GGAUGCUAUUGUGAAUGUGTT against Dnmt3b	inactive: -0.0135
GGUGCAAGUUUUUCAGUCUTT against Castor2	inactive: 0.411

Sequence	z-score
GUUUGGAGUGAUGAUUGAGTT against Pla2g2e	inactive: 0.926
GGCAGAUGGCAAAGAAUUATT against Pbxip1	inactive: 0.508
GCCUGGUACAGAACCAGUATT against Ntsr2	inactive: 0.547
GGCUUUGGACAGAAUGUGGTT against Itgam	inactive: -0.683
CGCCAUCCCAUGUUACUCUTT against Papss2	inactive: -0.972
GUAUCAGCCGAGCAACAUCTT against Mrpl34	inactive: 0.577
GGCCACAUUGUCCUAUCAGTT against Cdh16	inactive: 0.0595
GGGAUGCUGUCUUCUGUCATT against Prex1	active: -3.39
GGGAGAAGAAAACUGGCUATT against Pnlip	inactive: -0.957
GGCAACUGUUUCUGCUCCGTT against Ap4e1	inactive: -0.746
GCAAAGGUCAGGACUAUUUTT against Qrfpr	inactive: 0.331
CGGUCCUUUUUAAACACUUTT against Nrbp2	inactive: -0.174
CCUUGACCGAGGAAGACAATT against Scgb1b27	inactive: 0.744
GGUAAUGAGGACAUGGAUCTT against Lyrm4	inactive: 0.467
GCUAUGGCCAUUAUUGGAGTT against H2-D1	inactive: 0.657
GGCUUUCUUUCCCAUCGAUTT against Dpf2	inactive: -1.65
GGCCUCAGACCUUCUAUGATT against Mtap	inactive: -0.149
GGGAGAUGCAACAACAAGATT against Epx	inactive: -0.847
GGUGUGAGUGUAAGUUUAUTT against Wnt16	inactive: 1.1
GGAGAACAAGGCAAAAGAATT against Mindy4	inactive: -0.945
GCCUUGAUAAUGUACGGCATT against Blvra	inactive: -0.88
GCCCUGAGACCACGAUAUUTT against AF067063	inactive: 1.48

Sequence	z-score
GGCGAAAAGCCUUUUCCCUTT against Zic1	inactive: 0.334
CCCAAGACUCGUACACGCATT against Ggn	inactive: 0.121
GCAGGAGAGUUUUGUUUUUTT against Mterf1a	inactive: -0.506
CCUUGACUUUAAUUUGAAGTT against Bpifc	inactive: 0.319
CCACAUGGCUAUUCACUAUTT against Spata7	inactive: -0.532
GCAGGACUUACAUGAGAAUTT against Fam13c	inactive: 0.534
GGAAUGAAAAAGUUCUACATT against Dnajc10	inactive: 1.1
GGAGCUGUGACUAGGAAUGTT against Abo	inactive: 1.5
CCUCUAUGAUUUGUAGAACTT against Thap12	inactive: 0.75
CGACAACCUCAACAACGUGTT against Tom1	inactive: -0.377
GGGAUCUGUGUUGAAUGAATT against Fam180a	inactive: 0.131
GGAGGAAUCUCCAGAAGGUTT against Agap1	inactive: -0.694
GCUUGAGAUAAGUGGGUUUTT against Fam98b	inactive: 0.769
GCACAUGUCAGACACGGCATT against Hdc	inactive: -1.01
GGUACUUCUGGAAAAGUACTT against Spcs2	inactive: 0.504
GGAGGAAGAGAUGAUUUUATT against Mia3	inactive: 0.365
GGAAGCACUUCUGCUUUCUTT against Azin2	inactive: -0.0234
CGGUGUACGAGUUAGAGAATT against Crybb3	inactive: 1.75
GGAGUUUCUAACUAAAUUCTT against 4932411N23Rik	inactive: 0.513

Some of the entries so far, in markdown:

| Sequence | z-score |
| --- | --- |
| GCAAAAGCUUUACUUAGUATT against Prl3c1 | inactive: 0.555 |
| GGAACACAAUGGGACGAGUTT against Ccl11 | inactive: -1.12 |
| GGCCGGAUGGCUCCAUUAUTT against Mmp28 | inactive: -0.0597 |
| GGUCGAAGUGGACAUCUUUTT against Grik4 | inactive: -0.831 |
| GCCUACAGAGAUCUAUAAUTT against Gmds | inactive: 0.457 |
| GGAUAACUUUAUGAAUGAGTT against Loxl3 | inactive: -0.463 |
| GGAUGCUAUUGUGAAUGUGTT against Dnmt3b | inactive: -0.0135 |
| GGUGCAAGUUUUUCAGUCUTT against Castor2 | inactive: 0.411 |
| GUUUGGAGUGAUGAUUGAGTT against Pla2g2e | inactive: 0.926 |
| GGCAGAUGGCAAAGAAUUATT against Pbxip1 | inactive: 0.508 |
| GCCUGGUACAGAACCAGUATT against Ntsr2 | inactive: 0.547 |
| GGCUUUGGACAGAAUGUGGTT against Itgam | inactive: -0.683 |
| CGCCAUCCCAUGUUACUCUTT against Papss2 | inactive: -0.972 |
| GUAUCAGCCGAGCAACAUCTT against Mrpl34 | inactive: 0.577 |
| GGCCACAUUGUCCUAUCAGTT against Cdh16 | inactive: 0.0595 |
| GGGAUGCUGUCUUCUGUCATT against Prex1 | active: -3.39 |
| GGGAGAAGAAAACUGGCUATT against Pnlip | inactive: -0.957 |
| GGCAACUGUUUCUGCUCCGTT against Ap4e1 | inactive: -0.746 |
| GCAAAGGUCAGGACUAUUUTT against Qrfpr | inactive: 0.331 |
| CGGUCCUUUUUAAACACUUTT against Nrbp2 | inactive: -0.174 |
